The values below come from doi:10.1101/2023.02.03.527076.

Amino acid sequences for entries named in this document (tags omitted). A change or cut given only in a name is not applied to a line headed by its entry.
UniProt O81765: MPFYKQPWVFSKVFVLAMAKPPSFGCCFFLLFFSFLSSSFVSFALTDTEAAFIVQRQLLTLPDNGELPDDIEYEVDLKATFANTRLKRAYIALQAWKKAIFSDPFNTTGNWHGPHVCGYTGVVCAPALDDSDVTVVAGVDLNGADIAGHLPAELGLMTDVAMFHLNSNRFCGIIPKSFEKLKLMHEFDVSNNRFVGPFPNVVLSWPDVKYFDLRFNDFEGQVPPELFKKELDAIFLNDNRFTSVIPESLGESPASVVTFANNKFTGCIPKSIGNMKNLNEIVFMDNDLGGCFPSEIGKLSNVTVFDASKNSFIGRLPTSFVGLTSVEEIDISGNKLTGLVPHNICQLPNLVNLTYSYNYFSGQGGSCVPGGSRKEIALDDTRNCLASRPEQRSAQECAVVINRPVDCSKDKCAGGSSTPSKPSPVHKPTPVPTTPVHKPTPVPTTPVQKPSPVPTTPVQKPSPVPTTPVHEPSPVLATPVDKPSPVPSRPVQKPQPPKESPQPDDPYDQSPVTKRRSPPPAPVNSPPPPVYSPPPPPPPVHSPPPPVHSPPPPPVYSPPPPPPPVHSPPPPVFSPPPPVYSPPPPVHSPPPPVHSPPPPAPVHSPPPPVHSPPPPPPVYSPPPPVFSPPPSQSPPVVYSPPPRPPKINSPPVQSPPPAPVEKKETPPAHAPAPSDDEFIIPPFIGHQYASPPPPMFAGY
UniProt Q6NME6: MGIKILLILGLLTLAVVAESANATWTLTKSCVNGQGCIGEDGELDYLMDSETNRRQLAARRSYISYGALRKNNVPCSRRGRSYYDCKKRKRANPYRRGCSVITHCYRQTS

These are yes or no findings as the source states them, for the method shown. For some assays here: A result given as binding can be weak or reduced; the word gives no strength. Tags and fused reporters may be left off the sequences shown. For some assays here: In cells and extracts the contact can be indirect.

Assay [1] deals with T1, AtSYP32 (BiFC fusion) (Arabidopsis thaliana) (UniProt Q9LK09).
T1 sequence: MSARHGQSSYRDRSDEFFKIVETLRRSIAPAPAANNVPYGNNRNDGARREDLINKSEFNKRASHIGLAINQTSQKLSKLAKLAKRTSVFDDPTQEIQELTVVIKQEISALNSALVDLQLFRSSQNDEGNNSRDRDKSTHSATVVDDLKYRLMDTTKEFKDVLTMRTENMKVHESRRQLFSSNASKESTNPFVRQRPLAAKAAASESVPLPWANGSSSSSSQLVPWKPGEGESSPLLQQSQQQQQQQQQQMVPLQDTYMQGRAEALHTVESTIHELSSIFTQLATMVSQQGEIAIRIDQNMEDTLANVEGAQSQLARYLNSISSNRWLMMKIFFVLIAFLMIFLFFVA
In words: split reporter.

In assay [2] the target is T2, AtSYP32 (yeast two-hybrid fusion) (Arabidopsis thaliana) (UniProt Q9LK09).
T2 sequence: T1 sequence
Nature of the assay: two-hybrid.

Assay [3] addresses T3, AtSYP31 (yeast two-hybrid fusion) (Arabidopsis thaliana) (UniProt Q9FFK1).
T3 sequence: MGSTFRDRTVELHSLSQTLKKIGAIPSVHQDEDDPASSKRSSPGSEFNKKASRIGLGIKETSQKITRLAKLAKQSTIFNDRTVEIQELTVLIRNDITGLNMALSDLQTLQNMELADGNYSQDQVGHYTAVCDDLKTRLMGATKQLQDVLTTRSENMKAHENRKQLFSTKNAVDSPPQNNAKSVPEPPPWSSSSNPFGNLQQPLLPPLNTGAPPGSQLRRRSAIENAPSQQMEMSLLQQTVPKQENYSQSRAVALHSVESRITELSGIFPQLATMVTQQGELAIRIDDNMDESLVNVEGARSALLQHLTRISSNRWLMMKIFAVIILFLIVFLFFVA
In words: two-hybrid.

Assay [4] concerns the target T4, LUC^N-AtSYP32 (Arabidopsis thaliana) (UniProt Q9LK09).
T4 sequence: T1 sequence
In words: split reporter.

With “LRX11 (BiFC fusion) (from UniProt O81765)”, in assay [1], the binding result is “binds”. For the substance “LRX11 (yeast two-hybrid fusion) (from UniProt O81765)”, the binding result in assay [2] was “binds”; in assay [3], “no binding”. Regarding LUC^C-LRX11 (from UniProt O81765), in assay [4], the binding entry is “binds”.

Take “LUC^C-RALF19 (from UniProt Q6NME6) (ligand)”: in assay [4], the binding result is given as “binds”.

Regarding “RALF19 (BiFC fusion) (from UniProt Q6NME6) (ligand)”, the binding result in assay [1] is recorded as “binds”. Consider “RALF19 (yeast two-hybrid fusion) (from UniProt Q6NME6) (ligand)”, for which the binding result is “binds” in assay [2] and “no binding” in assay [3].
